In patent US20230126271A1, “DEGRADER-ANTIBODY CONJUGATES AND METHODS OF USING SAME” (Anglex, Inc., priority 2020, published 2023):
Results are given in words; binding and its absence hold for the method and conditions named. Some entries that bind do so weakly or less than the wild type.

T1: transmembrane-4 L six family member-1 (TM4SF1) (human) (UniProt P30408)
T1 sequence: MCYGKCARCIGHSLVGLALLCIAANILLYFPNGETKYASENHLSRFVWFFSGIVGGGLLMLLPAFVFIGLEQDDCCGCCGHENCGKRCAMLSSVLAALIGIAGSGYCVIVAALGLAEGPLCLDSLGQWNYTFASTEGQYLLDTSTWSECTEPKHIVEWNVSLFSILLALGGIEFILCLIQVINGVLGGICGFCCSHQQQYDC

B1: monoclonal murine antibody AGX-A03 (antibody, V domains shown)
VH: QIQLVQSGPELKKPGETVKISCKASGYSFRDYGMNWVKQAPGRTFKWMGWINTYTGAPVYAADFKGRFAFSLDTSASAAFLQINNLKNEDTATYFCARWVSYGNNRNWFFDFWGAGTTVTVSS
VL: DVLMTQTPLSLPVRLGDQASISCRSSQTLVHSNGNTYLEWYLQKPGQSPKLLIYKVSNRLSGVPDRFSGSGSGTDFTLKISRVETEDLGVYYCFQGSHGPWTFGGGTKLEIK
B2: monoclonal murine antibody AGX-A04 (antibody, V domains shown)
VH: EVQLQQSGPELVKPGASVKISCKTSGYTFTDYTMHWVRQSHGKSLEWIGSFNPNNGGLTNYNQKFKGKATLTVDKSSSTVYMDLRSLTSEDSAVYYCTRIRATGFDSWGQGTTLTVSS
VL: DIVMSQSPSSLAVSAGEKVTMSCKSSQSLLNSRTRKNYLAWYQQKPGQSPKLLIYWASTRESGVPDRFTGSGSGTDFTLTISNVQAEDLTVYYCKQSYNPPWTFGGGTKLEIK
B3: monoclonal murine antibody AGX-A05 (antibody, V domains shown)
VH: EVQVQQSGPELVKPGASVKMSCKASGYTFTSYVMHWVKQKPGQGLEWIGYINPNNDNINYNEKFKGKASLTSDKSSNTVYMELSSLTSEDSAVYYCAGYGNSGANWGQGTLVTVSA
VL: DIQMTQSPASLSASVGETVTITCRTSKNIFNFLAWYHQKQGRSPRLLVSHTKTLAAGVPSRFSGSGSGTQFSLKINSLQPEDFGIYYCQHHYGTPWTFGGGTKLEIK
B4: monoclonal murine antibody AGX-A07 (antibody, V domains shown)
VH: QIQLVQSGPELKKPGETVKISCKASGYTFTNYGVKWVKQAPGKDLKWMGWINTYTGNPIYAADFKGRFAFSLETSASTAFLQINNLKNEDTATYFCVRFQYGDYRYFDVWGAGTTVTVSS
VL: QIILSQSPAILSASPGEKVTMTCRANSGISFINWYQQKPGSSPKPWIYGTANLASGVPARFGGSGSGTSYSLTISRVEAEDAATYYCQQWSSNPLTFGAGTKLELR
B5: monoclonal murine antibody AGX-A08 (antibody, V domains shown)
VH: EVQLQQSGPELVKPGASVKLSCKASGYTVTSYVMHWVKQKPGQGLEWIGYINPYSDVTNCNEKFKGKATLTSDKTSSTAYMELSSLTSEDSAVYYCSSYGGGFAYWGQGTLVTVSA
VL: DIQMTQSPASLSASVGEPVTITCRASKNIYTYLAWYHQKQGKSPQFLVYNARTLAGGVPSRLSGSGSVTQFSLNINTLHREDLGTYFCQHHYDTPYTFGGGTNLEIK
B6: monoclonal murine antibody AGX-A09 (antibody, V domains shown)
VH: EVQLQQSGPELVKPGASVKMSCKASGYTFSSYVMHWVKQKPGQGLEWIGYINPYSDVTNYNEKFKGKATLTSDRSSNTAYMELSSLTSEDSAVYYCARNYFDWGRGTLVTVSA
VL: DIQMTQSPASLSASVGETVTITCRASKNVYSYLAWFQQKQGKSPQLLVYNAKTLAEGVPSRFSGGGSGTQFSLKINSLQPADFGSYYCQHHYNIPFTFGSGTKLEIK

Target: T1, transmembrane-4 L six family member-1 (TM4SF1) (human)
Test: screen, method not described

Binder | binding
B1 | binds
B2 | binds
B3 | binds
B4 | binds
B5 | binds
B6 | binds
